Laboratory results taken from article PMC5749160, “Disruption of an RNA-binding hinge region abolishes LHP1-mediated epigenetic repression”.

Biological target: T1, GST-LHP1 (Arabidopsis thaliana (Col-0 cDNA)) (UniProt Q946J8)
T1 sequence (looked up, limits assumed): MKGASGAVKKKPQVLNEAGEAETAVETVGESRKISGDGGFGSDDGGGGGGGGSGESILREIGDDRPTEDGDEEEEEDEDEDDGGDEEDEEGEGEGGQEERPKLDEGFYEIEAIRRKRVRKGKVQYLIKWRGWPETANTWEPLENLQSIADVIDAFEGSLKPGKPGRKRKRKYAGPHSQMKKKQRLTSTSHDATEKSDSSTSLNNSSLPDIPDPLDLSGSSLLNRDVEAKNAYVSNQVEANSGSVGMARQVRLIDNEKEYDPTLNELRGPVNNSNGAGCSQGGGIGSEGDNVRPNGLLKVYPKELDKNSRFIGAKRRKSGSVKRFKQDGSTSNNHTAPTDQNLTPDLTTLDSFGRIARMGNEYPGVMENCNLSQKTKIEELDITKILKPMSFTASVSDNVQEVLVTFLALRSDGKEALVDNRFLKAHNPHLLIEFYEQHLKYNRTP
Assay: EMSA
Conditions: lower affinity than ssRNA, EMSA: 20 mM HEPES-KOH pH 7.5, 100 mM KCl, 0.05% NP-40, 10 nM Cy5 probe (1 uL of 100 nM + 9 uL protein), 30 min room temperature, 1.6% TBE-agarose gel, recombinant protein, protein details: N-terminal GST (pGEX-4T-1), letters put together from the description

Sequence	binding result (label: 5' Cy5, single-stranded DNA)	binding result (label: 5' Cy5 on strand 1)
CTCCTCCGGCGATAAGTACGCCTTTTCCTTACCTGGGTTT [FLC 40-nt ssDNA]	binds more weakly	
CTCCTCCGGCGATAAGTACGCCTTTTCCTTACCTGGGTTT (double strand) [FLC 40-bp dsDNA]		binds more weakly

Construct, isoform or probe ends are uncertain for at least one entry. Weaker means in comparison with the reference protein, sequence or condition of that experiment. Where a protein sequence is shown, tags need not be part of it.
